According to PubChem BioAssay AID504834 (National Center for Advancing Translational Sciences (NCATS), 2011):
The campaign covered roughly 320,000 compounds. About 22,000 (6.9%) were called active. This list was built around the results that the source calls inconclusive (neither active nor inactive); the mix of calls is not that of the screen. The call rests on the fitted dose curve; in most records, active means well fitted inhibition curve with a large enough effect; inconclusive means small, poorly fitted or top-dose-only effect, or another doubt; inactive means no such curve, though single readings can be large or run the other way. A potency beside an inconclusive call is a rough fit, not a confirmed value.

Assay: Primary qHTS for delayed death inhibitors of the malarial parasite plastid, 96 hour incubation
Details: P. falciparum luciferase reporter growth; series mostly up to 28.7 µM
Outline: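 Cell-based qHTS: luciferase-tagged P. falciparum in erythrocytes (2% hematocrit, 0.05% parasitemia final) incubated with compounds for 96 hours, 37 C, 5% CO2; luciferase detection reagent then added and luminescence measured.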
Potency means the concentration at half of the fitted maximal effect.

Row | Structure (SMILES) | Potency
1 | O=C(O)c1ccc2c(=O)n(-c3ccccc3F)c(=S)[nH]c2c1 | inconclusive: 13.1 µM [inhibitor, single point]
2 | O=C(Nc1ccc2nc3n(c(=O)c2c1)CCCCC3)c1c(F)ccc([N+](=O)[O-])c1F | inconclusive: 18.5 µM [inhibitor, single point]
3 | O=c1c2cc(Cl)ccc2[nH]c(=S)n1Cc1ccco1 | inconclusive: 4.15 µM [inhibitor, single point]
4 | O=C(CCN1C(=O)C2C3C=CC(C3)C2C1=O)Nc1ccc2c(c1)OCO2 (stereo not drawn) | inconclusive: 0.0415 µM [inhibitor, full curve, poor fit]
5 | CC(C)(C)OC(=O)NCCOC(=O)c1[nH]cnc1C(=O)NCc1ccccc1 | inconclusive: 2.33 µM [inhibitor, full curve]
6 | CCN1CCN(C(=O)c2ccc(Cl)c(S(=O)(=O)N3CCOCC3)c2)CC1 | inconclusive: 0.0033 µM [inhibitor, full curve, poor fit]
7 | CN(C)c1ccc(NC(=O)c2cccc([N+](=O)[O-])c2)c2ccccc12 | inconclusive: 16.5 µM [inhibitor, single point]
8 | CCC(C(=O)NCc1cccnc1)c1ccccc1 (stereo not drawn) | inconclusive: 16.5 µM [inhibitor, single point]
9 | Oc1ccc(-c2n[nH]c(=S)n2-c2ccc3c(c2)OCCO3)cc1 | inconclusive: 0.586 µM [inhibitor, partial curve, poor fit]
10 | COC(=O)c1[nH]c2ccc(Br)cc2c1NC(=O)CN1CCCCC1CCO (stereo not drawn) | active: 5.22 µM
11 | Cc1cc(C(=O)NCc2cccs2)no1 | inconclusive: 5.86 µM [inhibitor, partial curve, poor fit]
12 | CCc1nc(NCc2cccnc2)c2oc3ccccc3c2n1 | inconclusive: 7.38 µM [inhibitor, partial curve, poor fit]
13 | CS(=O)(=O)N1CCC(C(=O)Nc2cccc(Cl)c2)CC1 | inconclusive: 11.7 µM [inhibitor, partial curve]
14 | COc1ccc(C2c3c(ncn(CCCN4CCOCC4)c3=N)Oc3ccc4ccccc4c32)cc1OC (stereo not drawn) | active: 1.85 µM
15 | CC(C)(C)C(=O)Nc1nc2c(s1)CN(Cc1ccccc1)CC2 | inconclusive: 2.62 µM [inhibitor, single point]
16 | CN(Cc1ccnc2ccccc12)C(=O)C1CCC(=O)N(Cc2ccccc2F)C1 (stereo not drawn) | inconclusive: 4.15 µM [inhibitor, full curve, poor fit]
17 | O=C(c1ccccc1)N1CCC(c2nc3c(nnn3Cc3ccco3)c(=O)[nH]2)CC1 | inconclusive: 18.5 µM [inhibitor, single point]
18 | Cc1ccc(OCCOC(=O)CN2C(=O)NC3(CCCC3)C2=O)cc1 | inactive
19 | COc1cccc(OC)c1CN1CCCC(C(=O)c2cccc(Cl)c2)C1 (stereo not drawn) | inconclusive: 18.5 µM [inhibitor, single point]
20 | O=c1c(Cl)c(N2CCN(S(=O)(=O)c3ccc(F)cc3)CC2)cnn1-c1cccc(Cl)c1 | active: 6.57 µM
21 | CN(CCO)c1ccc(C(C(=O)c2ccccc2)c2ccc(N(C)CCO)cc2)cc1 | inactive
22 | O=C(CSc1nc(C2CCCCC2)n(-c2ccccc2)n1)NCC(F)(F)F | inactive
23 | Cc1cc(Nc2ccc(C)c(F)c2)n2ncnc2n1 | inactive
24 | COc1ccc(-c2noc(C3CCCN(C(=O)c4ccccc4OC)C3)n2)cc1OC (stereo not drawn) | inconclusive: 16.5 µM [inhibitor, single point]
25 | CC(C)Cc1c2c([nH]c(=S)c1C#N)CCCC2 | inconclusive: 10.4 µM [inhibitor, single point]

Row | Structure (SMILES) | Potency
26 | NS(=O)(=O)c1ccc(CCNc2nc(CN3CCCCC3)nc3sc4c(c23)CCC4)cc1 | active: 6.57 µM
27 | CN(C)CCC#CC(O)(c1ccccc1)c1ccccc1 | inconclusive: 11.7 µM [inhibitor, single point]
28 | COc1ccc(NC2CCCN(C(=O)c3c(C)noc3C)C2)cc1 (stereo not drawn) | active: 1.85 µM
29 | CSc1ccccc1C(=O)Nc1ccc(C)cc1C | inconclusive: 18.5 µM [inhibitor, single point]
30 | O=C(NCc1ccccc1Cl)C1CCN(C(=O)c2sccc2-n2cccc2)CC1 | inconclusive: 18.5 µM [inhibitor, single point]
31 | O=C(CSc1nc(-c2ccccc2)cs1)Nc1ccccc1[N+](=O)[O-] | inactive
32 | Oc1ccc(Br)cc1-c1nc2cnccn2c1NC1CCCC1 | inactive
33 | CN(Cc1ccc(C(C)(C)C)cc1)C(=O)Cc1ccc(S(=O)(=O)N2CCOCC2)s1 | active: 13.1 µM
34 | CCCOc1ccc(C(=O)NCc2ccco2)cc1 | inconclusive: 10.4 µM [inhibitor, partial curve, poor fit]
35 | CC(=O)N1CCN(C(=O)C(Cc2ccccc2)NC(=O)c2ccccc2)CC1 (stereo not drawn) | inactive
36 | Cc1ncc(CO)c(/C=N/NC(=O)c2cc(O)c(O)c(O)c2)c1O | inconclusive: 1.85 µM [inhibitor, single point]
37 | Cc1cc(-c2nnc3sc(-c4ccc(Cl)cc4Cl)nn23)n[nH]1 | inconclusive: 0.329 µM [inhibitor, full curve, poor fit]
38 | CCc1c(C(=O)OC)nnc2cc(C)nn12 | inactive
39 | CC(C)[C@@H]1NC(=O)c2cc([N+](=O)[O-])cc(I)c2NCC[C@@H](C(N)=O)NC(=O)[C@H](CO)NC1=O | inactive
40 | Cc1cccc(N2C(=O)CC(N3CCC(c4nc5ccccc5[nH]4)CC3)C2=O)c1 (stereo not drawn) | inactive
41 | CC(C)C(=O)Nc1ccc(NC(=S)NC(=O)c2ccc([N+](=O)[O-])cc2)cc1 | inactive
42 | Cc1ccc(C)c(OCCn2cc(/C=C(\C#N)C(=O)NCC3CCCO3)c3ccccc32)c1 (stereo not drawn) | active: 1.65 µM
43 | CN1C(=O)N(C)C(=O)C2(Cc3cc(NC(=O)c4ccccc4)ccc3N3CCCC32)C1=O (stereo not drawn) | active: 10.4 µM
44 | Cc1ccc(Cl)c(OCC(=O)NN2CCN(C)CC2)c1 | inactive
45 | O=C(Nc1nc2ccccc2s1)C1CC(=O)N(c2ccc(Cl)cc2)C1 (stereo not drawn) | inconclusive: 18.5 µM [inhibitor, single point]
46 | CC(C)(C)/C(O)=C/c1nc2ccccc2oc1=O | inactive
47 | CCOc1ccc(CCNC(=O)Cn2cccc2C(=O)c2ccccc2C)cc1OCC | inactive
48 | Cc1ccc(CNC(=O)CN2CCN(Cc3ccc(C)cc3)C2=O)cc1 | active: 2.94 µM
49 | CCOC(=O)Cn1c(=O)oc2cc(S(=O)(=O)N3CCN(C(=O)c4ccco4)CC3)ccc21 | inactive
50 | CCc1nccc2c1[nH]c1ccccc12 | inconclusive: 11.7 µM [inhibitor, partial curve, poor fit]

Row | Structure (SMILES) | Potency
51 | O=C(/C=C/c1ccco1)N1CCN(C/C=C/c2ccccc2)CC1 | inconclusive: 8.28 µM [inhibitor, partial curve, poor fit]
52 | CCOC(=O)N1CCN(S(=O)(=O)N2CCCC(C(=O)NCCc3ccc(C)cc3)C2)CC1 (stereo not drawn) | inconclusive: 10.4 µM [inhibitor, partial curve, poor fit]
53 | COc1ccc(C(=O)OCCc2cc3ccccc3c(=O)o2)cc1 | inconclusive: 18.5 µM [inhibitor, single point]
54 | Cc1ccc(N2CC(C(=O)NCC3CCCO3)CC2=O)cc1Cl (stereo not drawn) | inconclusive: 4.15 µM [inhibitor, partial curve, poor fit]
55 | COCc1c(C(=O)OCC(=O)N2c3ccccc3CC2C)oc2ccccc12 (stereo not drawn) | inactive
56 | CCOC(=O)C1CCN(C(=O)c2cc(C)n(C(C)(C)C)n2)CC1 | inactive
57 | CC(NC(=S)NCCc1ccccc1)C(c1cccs1)N1CCN(C)CC1 (stereo not drawn) | inconclusive: 16.5 µM [inhibitor, single point]
58 | CCOc1ccc(CCNC(=O)CS(=O)(=O)Cc2nc(-c3ccccc3F)oc2C)cc1 | inconclusive: 18.5 µM [inhibitor, single point]
59 | COc1ccc(-c2nc3cccc(C)n3c2NCC2CCCO2)cc1O (stereo not drawn) | inactive
60 | O=C(NC1CCCCC1)C(c1ccc(F)cc1)N(C(=O)c1csnn1)C1CCCC1 (stereo not drawn) | inconclusive: 18.5 µM [inhibitor, single point]
61 | CCOC(=O)c1sc(NC(=O)c2cccnc2)c(C#N)c1C | inconclusive: 0.294 µM [inhibitor, partial curve, poor fit]
62 | CC(NS(=O)(=O)c1ccccc1)C(c1cccs1)N1CCN(c2ccccc2)CC1 (stereo not drawn) | active: 8.28 µM
63 | O=C(NCC1CC1)c1onc(CSc2ccc(F)cc2)c1C(=O)NCC1CC1 | inconclusive: 18.5 µM [inhibitor, single point]
64 | O=C(c1cc(C2CC2)nn1-c1ccccc1)N1CCN(Cc2ccccc2F)CC1 | inactive
65 | COCCc1ncc(CN2CCC(C(=O)Nc3ccc(-n4cccn4)cc3)CC2)cn1 | inactive
66 | CC1CN(C(=O)C2(C)CC2(Br)Br)CC(C)O1 (stereo not drawn) | inactive
67 | CC1CCc2sc(C(=O)Nc3ccc(N4CCOCC4)cc3)cc2C1 (stereo not drawn) | inconclusive: 14.7 µM [inhibitor, single point]
68 | COc1cccc(C(=O)Nc2ccc3ccccc3c2)c1 | inactive
69 | CCOP(=O)(OCC)O/C(=C/Cl)c1ccc(Cl)cc1Cl | inconclusive: 16.9 µM [inhibitor, partial curve, poor fit]
70 | Cc1c(Cl)cccc1NC(=O)C1C2C=CC(C2)C1C(=O)O (stereo not drawn) | inconclusive: 13.1 µM [inhibitor, single point]
71 | CCCCn1c(N)c(N(CC(C)C)C(=O)COC(=O)c2ccccc2NCCO)c(=O)[nH]c1=O | inactive
72 | CCOC(=O)c1ccc(NC(=O)C(=O)NCc2ccncc2)cc1 | inactive
73 | CC(=O)Nc1ccc(S(=O)(=O)N2CCN(C(=O)c3ncoc3-c3cccc(F)c3)CC2)cc1 | inactive

Some of these compounds in order of molar mass, largest number first.
Row | Structure (SMILES) | Potency
71 | CCCCn1c(N)c(N(CC(C)C)C(=O)COC(=O)c2ccccc2NCCO)c(=O)[nH]c1=O | inactive
58 | CCOc1ccc(CCNC(=O)CS(=O)(=O)Cc2nc(-c3ccccc3F)oc2C)cc1 | inconclusive: 18.5 µM [inhibitor, single point]
62 | CC(NS(=O)(=O)c1ccccc1)C(c1cccs1)N1CCN(c2ccccc2)CC1 (stereo not drawn) | active: 8.28 µM
64 | O=C(c1cc(C2CC2)nn1-c1ccccc1)N1CCN(Cc2ccccc2F)CC1 | inactive
